Results as given in the supplement of paper PMC10849652.
The list shows a part of the results.

The chains behind the UniProt entries cited, without tags or fusion partners. Where a name states a change or a piece, a line headed by the entry shows the natural chain unless it says otherwise.
UniProt Q99933: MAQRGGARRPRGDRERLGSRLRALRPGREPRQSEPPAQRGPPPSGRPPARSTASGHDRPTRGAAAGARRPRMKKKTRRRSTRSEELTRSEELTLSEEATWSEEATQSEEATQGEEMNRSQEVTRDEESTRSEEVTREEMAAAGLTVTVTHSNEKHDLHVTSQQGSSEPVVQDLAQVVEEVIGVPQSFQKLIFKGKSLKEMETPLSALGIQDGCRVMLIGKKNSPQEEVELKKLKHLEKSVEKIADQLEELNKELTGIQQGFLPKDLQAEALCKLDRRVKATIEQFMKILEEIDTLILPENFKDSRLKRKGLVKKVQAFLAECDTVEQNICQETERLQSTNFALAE
UniProt O95429: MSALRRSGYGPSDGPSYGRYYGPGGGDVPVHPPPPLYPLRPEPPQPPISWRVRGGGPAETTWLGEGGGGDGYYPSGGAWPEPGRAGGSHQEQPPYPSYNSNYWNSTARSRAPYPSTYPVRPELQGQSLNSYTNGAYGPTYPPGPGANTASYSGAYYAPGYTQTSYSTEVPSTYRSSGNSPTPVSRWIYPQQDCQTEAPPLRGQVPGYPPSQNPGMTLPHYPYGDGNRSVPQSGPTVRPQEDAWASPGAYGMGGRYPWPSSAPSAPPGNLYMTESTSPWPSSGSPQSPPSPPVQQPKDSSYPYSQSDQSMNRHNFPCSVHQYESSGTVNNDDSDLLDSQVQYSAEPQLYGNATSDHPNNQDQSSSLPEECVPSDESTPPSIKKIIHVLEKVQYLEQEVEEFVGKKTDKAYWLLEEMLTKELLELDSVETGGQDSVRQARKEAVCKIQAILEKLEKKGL
UniProt Q07817, whole entry, looked up: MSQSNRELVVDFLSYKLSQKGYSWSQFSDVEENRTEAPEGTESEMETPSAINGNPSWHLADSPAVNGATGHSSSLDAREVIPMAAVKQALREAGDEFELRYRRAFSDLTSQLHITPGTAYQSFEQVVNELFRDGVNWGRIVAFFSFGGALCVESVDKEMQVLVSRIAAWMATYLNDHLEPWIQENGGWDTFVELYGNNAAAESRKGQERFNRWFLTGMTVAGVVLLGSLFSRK
UniProt Q9UIG0: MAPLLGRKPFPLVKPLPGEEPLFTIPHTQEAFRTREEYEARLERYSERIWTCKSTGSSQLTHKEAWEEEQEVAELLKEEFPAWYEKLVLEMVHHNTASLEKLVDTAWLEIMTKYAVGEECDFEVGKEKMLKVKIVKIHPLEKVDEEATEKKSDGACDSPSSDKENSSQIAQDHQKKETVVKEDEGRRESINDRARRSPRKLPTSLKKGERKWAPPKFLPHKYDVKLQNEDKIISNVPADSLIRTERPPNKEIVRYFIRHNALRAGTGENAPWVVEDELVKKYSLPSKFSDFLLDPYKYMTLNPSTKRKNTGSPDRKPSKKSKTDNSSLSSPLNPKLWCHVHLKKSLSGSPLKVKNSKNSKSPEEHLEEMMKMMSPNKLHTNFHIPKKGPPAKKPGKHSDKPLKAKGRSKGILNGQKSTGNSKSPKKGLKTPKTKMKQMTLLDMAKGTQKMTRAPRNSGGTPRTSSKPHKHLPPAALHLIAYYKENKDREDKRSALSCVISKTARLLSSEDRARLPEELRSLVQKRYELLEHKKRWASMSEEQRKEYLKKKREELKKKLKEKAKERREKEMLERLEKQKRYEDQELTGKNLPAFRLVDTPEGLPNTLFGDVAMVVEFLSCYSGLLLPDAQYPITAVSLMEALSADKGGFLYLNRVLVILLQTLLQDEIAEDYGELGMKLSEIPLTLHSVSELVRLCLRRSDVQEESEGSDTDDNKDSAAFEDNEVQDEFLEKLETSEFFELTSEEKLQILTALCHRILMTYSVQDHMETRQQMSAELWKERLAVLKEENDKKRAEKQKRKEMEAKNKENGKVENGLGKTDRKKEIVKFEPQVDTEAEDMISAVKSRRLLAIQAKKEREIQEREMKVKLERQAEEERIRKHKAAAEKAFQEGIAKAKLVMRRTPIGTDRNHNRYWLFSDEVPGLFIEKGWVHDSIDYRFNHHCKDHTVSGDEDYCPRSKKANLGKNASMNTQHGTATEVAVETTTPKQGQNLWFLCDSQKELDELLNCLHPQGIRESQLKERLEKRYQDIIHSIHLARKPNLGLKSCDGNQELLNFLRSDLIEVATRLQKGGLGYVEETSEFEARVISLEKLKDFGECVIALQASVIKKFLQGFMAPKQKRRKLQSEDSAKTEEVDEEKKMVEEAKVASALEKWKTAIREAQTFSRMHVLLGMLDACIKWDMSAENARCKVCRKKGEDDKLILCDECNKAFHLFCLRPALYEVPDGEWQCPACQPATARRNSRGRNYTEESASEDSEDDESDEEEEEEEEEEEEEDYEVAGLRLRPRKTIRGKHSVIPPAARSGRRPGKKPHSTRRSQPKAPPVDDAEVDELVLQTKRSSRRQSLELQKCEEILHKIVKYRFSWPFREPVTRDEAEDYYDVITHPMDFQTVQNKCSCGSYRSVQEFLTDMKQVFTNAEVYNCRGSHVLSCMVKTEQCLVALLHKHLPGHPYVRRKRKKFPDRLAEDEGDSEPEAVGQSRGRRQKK
UniProt P54687: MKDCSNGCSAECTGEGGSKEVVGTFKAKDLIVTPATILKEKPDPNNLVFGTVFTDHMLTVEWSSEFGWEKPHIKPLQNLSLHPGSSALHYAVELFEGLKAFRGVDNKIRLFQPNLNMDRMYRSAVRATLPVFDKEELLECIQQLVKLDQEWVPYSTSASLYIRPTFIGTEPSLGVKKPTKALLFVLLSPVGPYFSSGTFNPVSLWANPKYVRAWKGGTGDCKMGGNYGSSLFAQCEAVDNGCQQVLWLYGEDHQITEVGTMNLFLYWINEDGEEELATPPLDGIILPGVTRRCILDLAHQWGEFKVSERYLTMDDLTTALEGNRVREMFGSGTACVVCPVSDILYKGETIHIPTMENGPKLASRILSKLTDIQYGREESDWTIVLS
UniProt Q12981: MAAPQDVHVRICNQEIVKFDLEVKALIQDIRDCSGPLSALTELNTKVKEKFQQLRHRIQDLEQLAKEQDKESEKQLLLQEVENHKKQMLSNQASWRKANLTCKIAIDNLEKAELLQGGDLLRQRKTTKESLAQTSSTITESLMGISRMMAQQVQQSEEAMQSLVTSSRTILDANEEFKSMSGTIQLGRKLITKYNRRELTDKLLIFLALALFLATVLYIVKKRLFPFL
UniProt P56945: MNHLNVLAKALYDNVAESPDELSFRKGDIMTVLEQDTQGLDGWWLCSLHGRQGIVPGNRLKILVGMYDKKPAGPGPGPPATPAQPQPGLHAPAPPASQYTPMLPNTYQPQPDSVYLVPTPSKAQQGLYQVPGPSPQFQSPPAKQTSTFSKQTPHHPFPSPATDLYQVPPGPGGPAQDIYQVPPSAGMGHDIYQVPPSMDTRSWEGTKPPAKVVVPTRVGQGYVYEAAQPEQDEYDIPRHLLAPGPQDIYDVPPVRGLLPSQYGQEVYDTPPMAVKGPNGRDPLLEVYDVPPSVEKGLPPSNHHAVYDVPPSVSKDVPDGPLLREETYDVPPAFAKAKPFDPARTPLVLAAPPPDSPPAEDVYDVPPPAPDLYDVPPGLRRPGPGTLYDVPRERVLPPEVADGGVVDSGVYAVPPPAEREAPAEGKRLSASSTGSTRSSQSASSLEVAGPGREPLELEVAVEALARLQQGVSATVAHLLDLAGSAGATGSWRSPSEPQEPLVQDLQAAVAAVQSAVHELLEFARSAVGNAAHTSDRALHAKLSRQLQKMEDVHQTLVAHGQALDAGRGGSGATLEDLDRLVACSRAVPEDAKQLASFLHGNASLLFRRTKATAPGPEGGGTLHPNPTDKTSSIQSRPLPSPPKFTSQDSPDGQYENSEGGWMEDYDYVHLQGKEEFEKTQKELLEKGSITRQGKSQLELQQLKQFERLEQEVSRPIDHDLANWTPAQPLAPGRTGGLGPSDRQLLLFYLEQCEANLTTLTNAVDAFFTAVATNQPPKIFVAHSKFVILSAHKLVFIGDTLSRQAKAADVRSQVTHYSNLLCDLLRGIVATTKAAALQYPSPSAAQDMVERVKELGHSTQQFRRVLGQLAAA
UniProt Q9HB09: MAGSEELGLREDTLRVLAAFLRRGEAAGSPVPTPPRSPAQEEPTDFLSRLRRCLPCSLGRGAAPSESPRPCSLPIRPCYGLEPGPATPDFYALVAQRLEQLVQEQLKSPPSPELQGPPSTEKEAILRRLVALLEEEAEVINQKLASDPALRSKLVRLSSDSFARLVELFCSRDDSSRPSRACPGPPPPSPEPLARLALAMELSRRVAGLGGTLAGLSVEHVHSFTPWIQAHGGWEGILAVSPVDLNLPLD
UniProt P07738: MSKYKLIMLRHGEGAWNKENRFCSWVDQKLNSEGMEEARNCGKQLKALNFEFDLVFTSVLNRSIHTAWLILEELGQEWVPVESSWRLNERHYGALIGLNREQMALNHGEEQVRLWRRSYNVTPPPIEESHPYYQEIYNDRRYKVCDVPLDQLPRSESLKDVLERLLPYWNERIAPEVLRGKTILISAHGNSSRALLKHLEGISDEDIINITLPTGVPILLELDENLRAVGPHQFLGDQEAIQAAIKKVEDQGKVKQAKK
UniProt P21953: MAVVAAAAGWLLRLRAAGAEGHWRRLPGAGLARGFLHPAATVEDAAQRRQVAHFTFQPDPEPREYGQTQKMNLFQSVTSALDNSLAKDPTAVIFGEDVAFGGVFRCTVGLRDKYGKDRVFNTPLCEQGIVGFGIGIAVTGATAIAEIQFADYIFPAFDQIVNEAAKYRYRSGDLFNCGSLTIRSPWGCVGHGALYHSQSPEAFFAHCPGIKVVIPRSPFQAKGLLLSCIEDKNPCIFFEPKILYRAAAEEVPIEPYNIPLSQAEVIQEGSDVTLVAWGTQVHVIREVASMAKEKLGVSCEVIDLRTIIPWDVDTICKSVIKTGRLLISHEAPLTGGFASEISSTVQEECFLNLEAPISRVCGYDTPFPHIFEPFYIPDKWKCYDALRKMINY
UniProt Q9NWV8, whole entry, looked up: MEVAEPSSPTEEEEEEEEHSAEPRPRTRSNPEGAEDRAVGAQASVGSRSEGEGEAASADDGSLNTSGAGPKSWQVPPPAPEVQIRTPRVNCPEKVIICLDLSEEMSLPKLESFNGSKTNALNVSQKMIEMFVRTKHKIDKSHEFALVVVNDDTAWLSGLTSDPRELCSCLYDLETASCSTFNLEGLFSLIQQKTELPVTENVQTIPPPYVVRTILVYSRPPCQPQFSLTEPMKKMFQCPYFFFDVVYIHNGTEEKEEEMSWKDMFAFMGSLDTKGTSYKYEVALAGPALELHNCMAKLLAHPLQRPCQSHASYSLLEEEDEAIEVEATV
UniProt Q9UL15: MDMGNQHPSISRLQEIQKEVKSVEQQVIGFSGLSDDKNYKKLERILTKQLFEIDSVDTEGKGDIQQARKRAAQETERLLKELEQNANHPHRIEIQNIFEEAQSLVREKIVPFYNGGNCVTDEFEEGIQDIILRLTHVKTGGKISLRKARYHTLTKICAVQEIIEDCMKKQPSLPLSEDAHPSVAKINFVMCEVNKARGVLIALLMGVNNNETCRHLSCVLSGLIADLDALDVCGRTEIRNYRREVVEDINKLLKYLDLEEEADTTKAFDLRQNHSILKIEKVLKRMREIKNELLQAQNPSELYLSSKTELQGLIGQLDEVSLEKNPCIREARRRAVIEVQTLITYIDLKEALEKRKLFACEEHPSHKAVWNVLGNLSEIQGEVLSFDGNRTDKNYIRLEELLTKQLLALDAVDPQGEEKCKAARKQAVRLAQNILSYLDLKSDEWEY
UniProt Q9UHQ4: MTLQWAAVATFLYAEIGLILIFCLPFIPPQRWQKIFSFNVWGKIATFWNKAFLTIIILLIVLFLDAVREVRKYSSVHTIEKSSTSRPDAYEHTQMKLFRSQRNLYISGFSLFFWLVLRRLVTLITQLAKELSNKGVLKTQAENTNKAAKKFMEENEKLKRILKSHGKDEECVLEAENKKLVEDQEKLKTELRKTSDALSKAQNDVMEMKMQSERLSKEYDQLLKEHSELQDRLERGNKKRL
UniProt Q14457, whole entry, looked up: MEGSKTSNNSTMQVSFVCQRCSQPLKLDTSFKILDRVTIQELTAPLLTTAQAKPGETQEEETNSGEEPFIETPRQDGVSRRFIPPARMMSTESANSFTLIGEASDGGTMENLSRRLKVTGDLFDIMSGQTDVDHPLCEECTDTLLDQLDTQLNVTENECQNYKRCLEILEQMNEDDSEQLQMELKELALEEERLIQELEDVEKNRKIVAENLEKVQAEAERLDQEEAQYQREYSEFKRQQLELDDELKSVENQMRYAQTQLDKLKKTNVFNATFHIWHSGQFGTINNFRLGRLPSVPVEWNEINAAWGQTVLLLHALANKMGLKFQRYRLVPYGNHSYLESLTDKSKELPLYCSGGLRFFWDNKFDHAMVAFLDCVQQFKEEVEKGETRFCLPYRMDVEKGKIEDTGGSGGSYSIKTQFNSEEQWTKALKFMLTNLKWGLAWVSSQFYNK

Experiments:
Assay in all cases: log2 fold change, soluble protein after heating vs DMSO (PISA); higher = thermal stabilisation; K562 lysate, 10 uM; active = over 0.2 and 3.5 SD of the protein, either way, in both replicates (recomputed)
lapatinib = compound: CS(=O)(=O)CCNCc1ccc(-c2ccc3ncnc(Nc4ccc(OCc5cccc(F)c5)c(Cl)c4)c3c2)o1 [lapatinib]
How it was run: (§1)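 Soluble protein was defined as the supernatant remaining after 21,000xg for 90 min, following pooling of heated aliquots and adjustment to 0.5% NP-40 at 4°C. Before that, crude K562 extract at 1 mg/mL protein in PBS pH 7.4 with 1 mM MgCl2 was treated with 10 μM compound for 30 min and heated for 3 min across 48°C-58°C. Quantification used TMTpro 16plex LC-MS/MS with channel sums equalised, and values are log-two fold changes in thermal stability relative to solvent controls from duplicates.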

pictilisib = compound: CS(=O)(=O)N1CCN(Cc2cc3nc(-c4cccc5[nH]ncc45)nc(N4CCOCC4)c3s2)CC1 [pictilisib]
How it was run: as §1

crizotinib = compound: C[C@@H](Oc1cc(-c2cnn(C3CCNCC3)c2)cnc1N)c1c(Cl)ccc(F)c1Cl [crizotinib]
How it was run: as §1

[1] = compound: C[C@H](C1=CC=C(C=C1)C(=O)NC2=C3C=CNC3=NC=C2)N
How it was run: as §1

duvelisib = compound: C[C@H](Nc1ncnc2nc[nH]c12)c1cc2cccc(Cl)c2c(=O)n1-c1ccccc1 [duvelisib]
How it was run: as §1

gandotinib = compound: Cc1cc(Nc2cc(CN3CCOCC3)c3nc(C)c(Cc4ccc(Cl)cc4F)n3n2)n[nH]1 [gandotinib]
How it was run: as §1

tozasertib = compound: Cc1cc(Nc2cc(N3CCN(C)CC3)nc(Sc3ccc(NC(=O)C4CC4)cc3)n2)n[nH]1 [tozasertib]
How it was run: as §1

doramapimod = compound: Cc1ccc(-n2nc(C(C)(C)C)cc2NC(=O)Nc2ccc(OCCN3CCOCC3)c3ccccc23)cc1 [doramapimod]
How it was run: as §1

bafetinib = compound: Cc1ccc(NC(=O)c2ccc(CN3CC[C@H](N(C)C)C3)c(C(F)(F)F)c2)cc1Nc1nccc(-c2cncnc2)n1 [bafetinib]
How it was run: as §1

[2] = compound: Cc1cccc(CC(=O)N2CCc3c2ccc(-c2cn(C)c4ncnc(N)c24)c3F)n1
How it was run: as §1

Measured: log2 fold change

BAG1 (UniProt Q99933)
inactive: lapatinib 0.003 | pictilisib -0.014 | crizotinib 0.02 | [1] -0.104 | duvelisib -0.05 | gandotinib 0.154 | tozasertib 0.047 | doramapimod -0.028 | bafetinib -0.037 | [2] 0.108

BAG4 (UniProt O95429)
inactive: lapatinib 0.013 | pictilisib -0.174 | crizotinib 0.06 | [1] -0.056 | duvelisib 0.043 | gandotinib 0.102 | tozasertib 0.011 | doramapimod -0.043 | bafetinib -0.002 | [2] 0.004

BCL2L1 (UniProt Q07817)
inactive: lapatinib -0.034 | pictilisib -0.021 | crizotinib 0.047 | [1] -0.072 | duvelisib -0.005 | gandotinib 0.06 | tozasertib 0.003 | doramapimod 0.038 | bafetinib -0.02 | [2] 0.038

BAZ1B (UniProt Q9UIG0)
inactive: lapatinib 0.029 | pictilisib -0.004 | crizotinib -0.026 | [1] -0.025 | duvelisib -0.016 | gandotinib -0.046 | tozasertib -0.04 | doramapimod 0.086 | bafetinib -0.009 | [2] 0.058

BLVRA (UniProt P53004)
inactive: lapatinib -0.02 | pictilisib -0.018 | crizotinib -0.007 | [1] 0.021 | duvelisib 0.022 | gandotinib -0.055 | tozasertib -0.024 | doramapimod -0.018 | bafetinib -0.034 | [2] -0.017

BCL7C isoform 2 (UniProt Q8WUZ0)
inactive: lapatinib -0.06 | pictilisib 0.017 | crizotinib 0.104 | [1] -0.208 | duvelisib -0.03 | gandotinib 0.081 | tozasertib 0.02 | doramapimod -0.024 | bafetinib -0.209 | [2] 0.075

BLOC1S5 (UniProt Q8TDH9)
inactive: lapatinib -0.025 | pictilisib -0.047 | crizotinib 0.038 | [1] -0.024 | duvelisib -0.039 | gandotinib 0.036 | tozasertib -0.034 | doramapimod -0.01 | bafetinib -0.041 | [2] -0.036

BCAT1 (UniProt P54687)
inactive: lapatinib -0.011 | pictilisib -0.005 | crizotinib 0.002 | [1] -0.077 | duvelisib 0.029 | gandotinib 0.052 | tozasertib -0.015 | doramapimod 0.004 | bafetinib 0.088 | [2] 0.007

BNIP1 (UniProt Q12981)
inactive: lapatinib -0.007 | pictilisib 0.018 | crizotinib -0.062 | [1] 0.273 | duvelisib -0.059 | gandotinib -0.15 | tozasertib 0.017 | doramapimod 0.071 | bafetinib -0.019 | [2] -0.17

BCAR1 isoform 6 (UniProt P56945)
inactive: lapatinib -0.044 | pictilisib 0.003 | crizotinib 0.003 | [1] 0.071 | duvelisib 0.008 | gandotinib -0.113 | tozasertib 0.01 | doramapimod -0.039 | bafetinib -0.073 | [2] -0.104

BIRC6 (UniProt Q9NR09)
inactive: lapatinib -0.028 | pictilisib -0.025 | crizotinib -0.024 | [1] -0.033 | duvelisib 0.021 | gandotinib -0.02 | tozasertib -0.009 | doramapimod 0.006 | bafetinib -0.028 | [2] 0.037

BCL2L12 (UniProt Q9HB09)
inactive: lapatinib 0.164 | pictilisib -0.184 | crizotinib 0.01 | [1] 0.045 | duvelisib 0.009 | gandotinib -0.003 | tozasertib -0.056 | doramapimod -0.016 | bafetinib -0.296 | [2] 0.057

BPGM (UniProt P07738)
inactive: lapatinib 0.016 | pictilisib -0.012 | crizotinib 0.002 | [1] 0.038 | duvelisib -0.037 | gandotinib -0.015 | tozasertib 0.087 | doramapimod 0.006 | bafetinib 0.034 | [2] -0.096

BCKDHB (UniProt P21953)
inactive: lapatinib 0.005 | pictilisib -0.043 | crizotinib -0.055 | [1] 0.083 | duvelisib 0.026 | gandotinib 0.015 | tozasertib 0.09 | doramapimod 0.064 | bafetinib -0.052 | [2] -0.017

BORCS5 (UniProt Q969J3)
inactive: lapatinib 0.015 | pictilisib 0.096 | crizotinib -0.002 | [1] 0.037 | duvelisib 0.037 | gandotinib -0.038 | tozasertib 0.007 | doramapimod -0.011 | bafetinib -0.042 | [2] -0.006

BCCIP isoform 2 (UniProt Q9P287)
inactive: lapatinib 0.031 | pictilisib -0.016 | crizotinib 0.025 | [1] 0.083 | duvelisib 0.023 | gandotinib -0.066 | tozasertib 0.042 | doramapimod 0.013 | bafetinib -0.025 | [2] -0.077

BAG6 isoform 3 (UniProt P46379)
inactive: lapatinib -0.002 | pictilisib -0.02 | crizotinib -0.019 | [1] 0.035 | duvelisib 0.016 | gandotinib -0.074 | tozasertib -0.018 | doramapimod -0.05 | bafetinib 0 | [2] 0.004

BRD4 (UniProt O60885)
inactive: lapatinib 0.044 | pictilisib 0.015 | crizotinib -0.03 | [1] -0.06 | duvelisib 0.013 | gandotinib 0.019 | tozasertib -0.031 | doramapimod 0.016 | bafetinib -0.024 | [2] -0.006

BABAM1 (UniProt Q9NWV8)
inactive: lapatinib -0.009 | pictilisib -0.005 | crizotinib 0.001 | [1] -0.08 | duvelisib -0.035 | gandotinib 0.026 | tozasertib -0.003 | doramapimod 0.005 | bafetinib 0.083 | [2] 0.028

BCR (UniProt P11274)
inactive: lapatinib -0.02 | pictilisib -0.032 | crizotinib 0.034 | [1] -0.064 | duvelisib -0.049 | gandotinib -0.013 | tozasertib 0.031 | doramapimod -0.047 | bafetinib 0.019 | [2] 0.1

BCAS2 (UniProt O75934)
inactive: lapatinib 0.003 | pictilisib -0.017 | crizotinib 0.004 | [1] 0.017 | duvelisib -0.005 | gandotinib -0.014 | tozasertib -0.018 | doramapimod 0.053 | bafetinib -0.055 | [2] 0.001

BCCIP (UniProt Q9P287)
inactive: lapatinib 0.004 | pictilisib 0.005 | crizotinib 0.097 | [1] 0.027 | duvelisib 0.013 | gandotinib -0.048 | tozasertib -0.058 | doramapimod -0.036 | bafetinib -0.019 | [2] 0.009

BAG5 isoform 2 (UniProt Q9UL15)
inactive: lapatinib 0.008 | pictilisib -0.012 | crizotinib -0.044 | [1] -0.036 | duvelisib 0.019 | gandotinib 0.026 | tozasertib 0.017 | doramapimod 0.019 | bafetinib -0.068 | [2] 0.052

BAIAP2 (UniProt Q9UQB8)
inactive: lapatinib 0.022 | pictilisib 0.015 | crizotinib 0.015 | [1] 0.062 | duvelisib -0.045 | gandotinib -0.099 | tozasertib -0.03 | doramapimod 0.185 | bafetinib 0.035 | [2] -0.063

BNIP2 (UniProt J3KN59)
inactive: lapatinib -0.015 | pictilisib -0.036 | crizotinib -0.017 | [1] -0.09 | duvelisib -0.067 | gandotinib 0.025 | tozasertib 0.12 | doramapimod 0.008 | bafetinib 0.078 | [2] 0.029

BCL10 (UniProt O95999)
inactive: lapatinib 0.013 | pictilisib -0.008 | crizotinib 0.055 | [1] -0.009 | duvelisib -0.09 | gandotinib 0.045 | tozasertib 0.03 | doramapimod -0.033 | bafetinib -0.033 | [2] 0.024

BTF3 (UniProt P20290)
inactive: lapatinib 0.004 | pictilisib 0.016 | crizotinib 0.036 | [1] 0.011 | duvelisib 0.025 | gandotinib 0.001 | tozasertib -0.013 | doramapimod -0.034 | bafetinib -0.009 | [2] -0.035

BCL2L13 (UniProt Q9BXK5)
inactive: lapatinib 0.002 | pictilisib 0 | crizotinib 0.004 | [1] -0.04 | duvelisib 0.014 | gandotinib 0.003 | tozasertib -0.02 | doramapimod -0.006 | bafetinib -0.005 | [2] 0.06

BCAP29 isoform 2 (UniProt Q9UHQ4)
inactive: lapatinib 0.006 | pictilisib -0.009 | crizotinib 0 | [1] -0.046 | duvelisib -0.037 | gandotinib -0.01 | tozasertib 0.048 | doramapimod -0.06 | bafetinib 0.023 | [2] 0.05

Pulled one by one from above, 2 records:
BORCS5 (UniProt Q969J3)
inactive: lapatinib 0.015 | pictilisib 0.096 | crizotinib -0.002 | [1] 0.037 | duvelisib 0.037 | gandotinib -0.038 | tozasertib 0.007 | doramapimod -0.011 | bafetinib -0.042 | [2] -0.006

BCL2L12 (UniProt Q9HB09)
inactive: lapatinib 0.164 | pictilisib -0.184 | crizotinib 0.01 | [1] 0.045 | duvelisib 0.009 | gandotinib -0.003 | tozasertib -0.056 | doramapimod -0.016 | bafetinib -0.296 | [2] 0.057

The listing continues:

BECN1 (UniProt Q14457)
inactive: lapatinib -0.019 | pictilisib 0.056 | crizotinib 0.002 | [1] 0.024 | duvelisib 0.105 | gandotinib 0.056 | tozasertib 0.027 | doramapimod 0.005 | bafetinib 0.032 | [2] -0.051
